The target in assay [1] is Insulin. The experiment in a line: developability ELISA on coated insulin. (In general: ELISA stands for enzyme-linked immunosorbent assay.)
Assay [2] deals with Insulin. In words: ELISA on coated insulin, OD450.

No constants are given. Whether binding was seen depends on the method and setting.

B1: chimeric anti-CD47 m5F9G4, human IgG1null (antibody, V domains shown)
VH: QVQLQQPGAELVKPGASVMMSCKASGYTFTNYNMHWVKQTPGQGLEWIGTIYPGNDDTSYNQKFKDKATLTADKSSSAAYMQLSSLTSEDSAVYYCARGGYRAMDYWGQGTSVTVSS
VL: DVLMTQTPLSLPVSLGDQASISCRSSQSIVYSNGNTYLGWYLQKPGQSPKLLIYKVSNRFSGVPDRFSGSGSGTDFTLKISRVEAEDLGVYHCFQGSHVPYTFGGGTKVEIK
In the case of B1, the values for the binding result in assay [1] and in assay [2] were “no binding” and “no binding (tested: 1 ug/ml)”, respectively.

(Values after patent US20260015420A1.)
